Data on two sequences can be found in article PMC10186271, “The ABA-induced NAC transcription factor MdNAC1 interacts with a bZIP-type transcription factor to promote anthocyanin synthesis in red-fleshed apples”.

Construct, isoform or probe ends are uncertain for at least one entry. At least one verdict was read from the data and is not stated in words by the source.

The series concerns MdNAC1 + MdbZIP23. The experiment in a line: EMSA. To be noted: increasing MdbZIP23-His enhances MdNAC1 binding, His tag added as control; Thermo Scientific Pierce EMSA kit protocol; pH and temperature not stated; cold probe 100x; recombinant protein; protein details: His (pET32a),His; label: 3' biotin.

Consider “GTGATTGGCTTCTGATGTTGACACGTGTCGCGCTGTGGTTGGCTTC (double strand) [UFGT hot probe (box 1)]”, for which the binding result is reported as “binds”.

Take “TTTAATAAAAAGGACCCTGAACACGTGGGAACCGGCCCGTTTGTAA (double strand) [MYB10 hot probe]”: the binding result is listed as “binds”.
